{"source": "PubChem BioAssay AID652259 (Drosophila RNAi Screening Center, 2013)", "aim": "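Knock-downs that push a Wingless-driven reporter up or down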 (primary screen)", "cell system": "Drosophila clone 8 imaginal disc epithelial cells", "reagent": "long dsRNA against Drosophila genes", "challenge": "pathway stimulated by co-transfected Wingless expression plasmid", "measurement": "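Firefly luciferase from a tcf-site Wingless reporter, measured alongside co-transfected Renilla luciferase that tracks transfection; pathway stimulated by a Wingless plasmid; the firefly-to-Renilla ratio is not deposited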", "direction": "firefly reporter light: higher = more Wg reporter light, before normalisation; Renilla control light: higher = more transfected or surviving cells", "rule for the call": "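Strong candidates differ from their plate mean by at least two out of four per-plate statistical tests; weak candidates meet just one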", "meaning of the calls": "active = candidate regulator (raises or lowers reporter); inactive = not a candidate", "note": "The deposit covers about 22,000 reagents; this is a random part of those that have a named target and a result. Over the whole deposit, 233 (1.1%) got an active call. 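Light values are raw, unnormalised plate reads; the ratio scores behind the reporter calls were not deposited.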 The record does not give: the amount of reagent, the time to read-out, the dose of the treatment."}
{"target gene": "lncRNA:CR43491", "amplicon": "DRSC19184", "firefly reporter light, replicate 1": 1840, "Renilla control light, replicate 1": 736, "Call": "inactive"}
{"target gene": "Cpr50Cb", "amplicon": "DRSC06975", "firefly reporter light, replicate 1": 6871, "Renilla control light, replicate 1": 2592, "Call": "inactive"}
{"target gene": "Hsc70-2", "amplicon": "DRSC16710", "firefly reporter light, replicate 1": 12640, "Renilla control light, replicate 1": 2610, "Call": "inactive"}
{"target gene": "CG17097", "amplicon": "DRSC02569", "firefly reporter light, replicate 1": 3126, "firefly reporter light, replicate 2": 6043, "Renilla control light, replicate 1": 1156, "Renilla control light, replicate 2": 2373, "Call": "inactive"}
{"target gene": "SPR", "amplicon": "DRSC17390", "firefly reporter light, replicate 1": 3712, "Renilla control light, replicate 1": 888, "Call": "inactive"}
{"target gene": "SPR", "amplicon": "DRSC17886", "firefly reporter light, replicate 1": 26147, "Renilla control light, replicate 1": 12666, "Call": "inactive"}
{"target gene": "SPR", "amplicon": "DRSC18114", "firefly reporter light, replicate 1": 21442, "Renilla control light, replicate 1": 10545, "Call": "inactive"}
{"target gene": "SPR", "amplicon": "DRSC21557", "firefly reporter light, replicate 1": 4.42e5, "firefly reporter light, replicate 2": 4.11e5, "Renilla control light, replicate 1": 2.10e5, "Renilla control light, replicate 2": 1.63e5, "Call": "inactive"}
{"target gene": "GluRIID", "amplicon": "DRSC16723", "firefly reporter light, replicate 1": 20569, "Renilla control light, replicate 1": 4605, "Call": "inactive"}
{"target gene": "Abcd3", "amplicon": "DRSC19488", "firefly reporter light, replicate 1": 23040, "Renilla control light, replicate 1": 12658, "Call": "inactive"}

The list goes on; the last 2 above are carried over.
{"target gene": "GluRIID", "amplicon": "DRSC16723", "firefly reporter light, replicate 1": 20569, "Renilla control light, replicate 1": 4605, "Call": "inactive"}
{"target gene": "Abcd3", "amplicon": "DRSC19488", "firefly reporter light, replicate 1": 23040, "Renilla control light, replicate 1": 12658, "Call": "inactive"}
{"target gene": "CG9664", "amplicon": "DRSC00725", "firefly reporter light, replicate 1": 11280, "Renilla control light, replicate 1": 5717, "Call": "inactive"}
{"target gene": "Fis1", "amplicon": "DRSC07772", "firefly reporter light, replicate 1": 6976, "Renilla control light, replicate 1": 3146, "Call": "inactive"}
{"target gene": "CG42561", "amplicon": "DRSC05676", "firefly reporter light, replicate 1": 18481, "Renilla control light, replicate 1": 11107, "Call": "inactive"}
{"target gene": "CG4960", "amplicon": "DRSC15684", "firefly reporter light, replicate 1": 18747, "Renilla control light, replicate 1": 15588, "Call": "inactive"}
{"target gene": "Taf9", "amplicon": "DRSC20326", "reporter change call, replicate 1": "Wg reporter activity raised", "firefly reporter light, replicate 1": 17728, "firefly reporter light, replicate 2": 26864, "Renilla control light, replicate 1": 672, "Renilla control light, replicate 2": 2008, "Call": "active"}
{"target gene": "CG6607", "amplicon": "DRSC16073", "firefly reporter light, replicate 1": 23574, "Renilla control light, replicate 1": 17354, "Call": "inactive"}
{"target gene": "dlg1", "amplicon": "DRSC18895", "firefly reporter light, replicate 1": 2315, "Renilla control light, replicate 1": 951, "Call": "inactive"}
{"target gene": "dlg1", "amplicon": "DRSC18896", "firefly reporter light, replicate 1": 4873, "Renilla control light, replicate 1": 2247, "Call": "inactive"}
{"target gene": "dlg1", "amplicon": "DRSC19767", "firefly reporter light, replicate 1": 20848, "Renilla control light, replicate 1": 7449, "Call": "inactive"}
{"target gene": "dlg1", "amplicon": "DRSC20324", "firefly reporter light, replicate 1": 1835, "firefly reporter light, replicate 2": 9028, "Renilla control light, replicate 1": 1081, "Renilla control light, replicate 2": 3184, "Call": "inactive"}
{"target gene": "CG30103", "amplicon": "DRSC06894", "firefly reporter light, replicate 1": 5317, "Renilla control light, replicate 1": 2054, "Call": "inactive"}
{"target gene": "Tsp29Fa", "amplicon": "DRSC03232", "firefly reporter light, replicate 1": 2304, "firefly reporter light, replicate 2": 5856, "Renilla control light, replicate 1": 855, "Renilla control light, replicate 2": 2912, "Call": "inactive"}
{"target gene": "CG5388", "amplicon": "DRSC15789", "firefly reporter light, replicate 1": 35202, "Renilla control light, replicate 1": 7012, "Call": "inactive"}
{"target gene": "Su(var)3-7", "amplicon": "DRSC16872", "firefly reporter light, replicate 1": 12272, "Renilla control light, replicate 1": 2348, "Call": "inactive"}
{"target gene": "Dh31", "amplicon": "DRSC02196", "firefly reporter light, replicate 1": 2429, "firefly reporter light, replicate 2": 5494, "Renilla control light, replicate 1": 733, "Renilla control light, replicate 2": 2635, "Call": "inactive"}
{"target gene": "unc", "amplicon": "DRSC20511", "firefly reporter light, replicate 1": 26269, "Renilla control light, replicate 1": 11520, "Call": "inactive"}
{"target gene": "CG32037", "amplicon": "DRSC10363", "firefly reporter light, replicate 1": 9063, "Renilla control light, replicate 1": 3712, "Call": "inactive"}
{"target gene": "CG2129", "amplicon": "DRSC18209", "firefly reporter light, replicate 1": 3270, "firefly reporter light, replicate 2": 6234, "Renilla control light, replicate 1": 1143, "Renilla control light, replicate 2": 1442, "Call": "inactive"}
{"target gene": "CG30001", "amplicon": "DRSC05191", "firefly reporter light, replicate 1": 19545, "Renilla control light, replicate 1": 9529, "Call": "inactive"}
{"target gene": "dachs", "amplicon": "DRSC01026", "firefly reporter light, replicate 1": 25192, "firefly reporter light, replicate 2": 7.50e5, "Renilla control light, replicate 1": 10577, "Renilla control light, replicate 2": 3.11e5, "Call": "inactive"}
{"target gene": "dachs", "amplicon": "DRSC02072", "firefly reporter light, replicate 1": 8592, "Renilla control light, replicate 1": 3878, "Call": "inactive"}
{"target gene": "dachs", "amplicon": "DRSC02191", "firefly reporter light, replicate 1": 2403, "firefly reporter light, replicate 2": 5798, "Renilla control light, replicate 1": 887, "Renilla control light, replicate 2": 3072, "Call": "inactive"}
